Results deposited as PubChem BioAssay AID743458 (Peter MacCallum Cancer Centre, 2014).

Test: 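Find knock-downs that make vorinostat-resistant colon cancer cells sensitive again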 (follow-up of hits)
System: human HCT116-VR colon cancer cells made resistant to vorinostat
Knock-down reagent: single siRNA or pool against human genes, 25 nM per single siRNA
Duration: about 72 h after transfection, including 24 h of drug
Challenge: vorinostat, 2.5 µM final, for 24 h
Measured: 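Cell viability by fluorescence and apoptosis by caspase 3/7 luminescence under vorinostat, background-corrected, averaged across two plate copies and given as fold change versus mock transfection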
Scale: viability relative to mock: higher = more living cells than mock; caspase activity relative to mock: higher = more apoptosis than mock
Call rule: 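An siRNA counts as active if classed as reduced viability or as caspase activation, otherwise inactive; a hit class needed wells that remained healthy in the absence of drug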
Here is one part, drawn at random, of about 1,800 reagents. 732 of them (41%) were called active. 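Calls are per siRNA reagent; a gene was deemed confirmed only if most of its four siRNAs scored.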 The numbers tell different reagents against one gene apart.

gene knocked down	reagent no.	viability relative to mock	caspase activity relative to mock	viability hit class	caspase hit class	Call
PRPF38A (pre-mRNA processing factor 38A)	1	0.73	1.19	no change	no change	inactive
PRPF38A (pre-mRNA processing factor 38A)	2	0.38	1.73	reduced viability	no change	active
PRPF38A (pre-mRNA processing factor 38A)	3	0.51	1.1	reduced viability	no change	active
PRPF38A (pre-mRNA processing factor 38A)	4	0.9	1.1	no change	no change	inactive
IQSEC1 (IQ motif and Sec7 domain ArfGEF 1)	1	0.8	1.08	no change	no change	inactive
IQSEC1 (IQ motif and Sec7 domain ArfGEF 1)	2	0.4	2.58	reduced viability	caspase activation	active
IQSEC1 (IQ motif and Sec7 domain ArfGEF 1)	3	0.28	3.27	reduced viability	caspase activation	active
IQSEC1 (IQ motif and Sec7 domain ArfGEF 1)	4	0.42	2.3	reduced viability	no change	active
KCNMB3	1	0.45	4.17	reduced viability	caspase activation	active
KCNMB3	2	0.72	2.15	no change	no change	inactive
KCNMB3	3	0.84	0.96	no change	no change	inactive
KCNMB3	4	0.8	2.19	no change	no change	inactive
TRHR (thyrotropin releasing hormone receptor)	1	0.89	0.96	no change	no change	inactive
TRHR (thyrotropin releasing hormone receptor)	2	0.44	1.87	reduced viability	no change	active
TRHR (thyrotropin releasing hormone receptor)	3	0.84	0.89	no change	no change	inactive
TRHR (thyrotropin releasing hormone receptor)	4	0.98	1.1	no change	no change	inactive
POLR2K (RNA polymerase II, I and III subunit K)	1	0.3	2.05	reduced viability	no change	active
POLR2K (RNA polymerase II, I and III subunit K)	2	0.5	1.84	reduced viability	no change	active
POLR2K (RNA polymerase II, I and III subunit K)	3	0.5	4.89	reduced viability	caspase activation	active
POLR2K (RNA polymerase II, I and III subunit K)	4	0.92	1.53	no change	no change	inactive
ALOX15 (arachidonate 15-lipoxygenase)	1	0.8	2.17	no change	no change	inactive
ALOX15 (arachidonate 15-lipoxygenase)	2	0.99	1.48	no change	no change	inactive
ALOX15 (arachidonate 15-lipoxygenase)	3	1.03	1.12	no change	no change	inactive
ALOX15 (arachidonate 15-lipoxygenase)	4	0.34	3.48	reduced viability	caspase activation	active
PTGER4 (prostaglandin E receptor 4)	1	0.34	1.95	reduced viability	no change	active
PTGER4 (prostaglandin E receptor 4)	2	0.94	1.02	no change	no change	inactive
PTGER4 (prostaglandin E receptor 4)	3	0.73	1.96	no change	no change	inactive
PTGER4 (prostaglandin E receptor 4)	4	0.82	1.12	no change	no change	inactive

A few values from above.
Under “Call”, PTGER4 (prostaglandin E receptor 4) #3 has inactive
Under “viability hit class”, IQSEC1 (IQ motif and Sec7 domain ArfGEF 1) #2 shows reduced viability
KCNMB3 #4, Call = inactive
POLR2K (RNA polymerase II, I and III subunit K) #3, Call: active

Additional reagents:
gene knocked down	reagent no.	viability relative to mock	caspase activity relative to mock	viability hit class	caspase hit class	Call
TDRP (testis development related protein)	1	0.6	1.68	no change	no change	inactive
TDRP (testis development related protein)	2	0.8	1.76	no change	no change	inactive
TDRP (testis development related protein)	3	0.77	4.2	no change	caspase activation	active
TDRP (testis development related protein)	4	0.4	4.66	reduced viability	caspase activation	active
DPPA5 (developmental pluripotency associated 5)	1	0.67	2.98	no change	caspase activation	active
DPPA5 (developmental pluripotency associated 5)	2	0.62	4.03	no change	caspase activation	active
DPPA5 (developmental pluripotency associated 5)	3	0.86	2.61	no change	caspase activation	active
DPPA5 (developmental pluripotency associated 5)	4	0.86	1.87	no change	no change	inactive
GALK1 (galactokinase 1)	1	0.88	3.59	no change	caspase activation	active
GALK1 (galactokinase 1)	2	0.6	1.84	no change	no change	inactive
GALK1 (galactokinase 1)	3	0.7	4.06	no change	caspase activation	active
GALK1 (galactokinase 1)	4	1.03	1.2	no change	no change	inactive
RNF40 (ring finger protein 40)	1	0.94	1.57	no change	no change	inactive
RNF40 (ring finger protein 40)	2	0.79	2.22	no change	no change	inactive
RNF40 (ring finger protein 40)	3	0.97	2.75	no change	caspase activation	active
RNF40 (ring finger protein 40)	4	0.96	1.38	no change	no change	inactive
MICALL2 (MICAL like 2)	1	0.6	2.56	no change	no change	inactive
MICALL2 (MICAL like 2)	2	0.94	2.66	no change	caspase activation	active
MICALL2 (MICAL like 2)	3	0.89	4.12	no change	caspase activation	active
MICALL2 (MICAL like 2)	4	1.02	1	no change	no change	inactive
HHEX (hematopoietically expressed homeobox)	1	1	1.39	no change	no change	inactive
HHEX (hematopoietically expressed homeobox)	2	1	1.9	no change	no change	inactive
HHEX (hematopoietically expressed homeobox)	3	0.86	2.11	no change	no change	inactive
HHEX (hematopoietically expressed homeobox)	4	0.88	4.66	no change	caspase activation	active
UFSP1 (UFM1 specific peptidase 1)	1	0.64	4.55	no change	caspase activation	active
UFSP1 (UFM1 specific peptidase 1)	2	0.7	2.47	no change	no change	inactive
UFSP1 (UFM1 specific peptidase 1)	3	0.91	1.47	no change	no change	inactive
UFSP1 (UFM1 specific peptidase 1)	4	0.92	1.41	no change	no change	inactive
PSMD13 (proteasome 26S subunit, non-ATPase 13)	1	0.42	3.17	reduced viability	caspase activation	active
PSMD13 (proteasome 26S subunit, non-ATPase 13)	2	0.72	6.25	no change	caspase activation	active
PSMD13 (proteasome 26S subunit, non-ATPase 13)	3	0.2	4.07	no change	no change	inactive
PSMD13 (proteasome 26S subunit, non-ATPase 13)	4	0.74	4.77	no change	caspase activation	active
